These are yes or no findings as the source states them, for the method shown. Some entries that bind do so weakly or less than the wild type.

Test [1] deals with T1, mouse IL-5Rα on Y16 cells (mouse, UniProt P21183 18-415).
T1 construct: whole, on cells; also called IL-5Rα chain; mouse IL-5Rα-expressing cell Y16
T1 sequence (looked up): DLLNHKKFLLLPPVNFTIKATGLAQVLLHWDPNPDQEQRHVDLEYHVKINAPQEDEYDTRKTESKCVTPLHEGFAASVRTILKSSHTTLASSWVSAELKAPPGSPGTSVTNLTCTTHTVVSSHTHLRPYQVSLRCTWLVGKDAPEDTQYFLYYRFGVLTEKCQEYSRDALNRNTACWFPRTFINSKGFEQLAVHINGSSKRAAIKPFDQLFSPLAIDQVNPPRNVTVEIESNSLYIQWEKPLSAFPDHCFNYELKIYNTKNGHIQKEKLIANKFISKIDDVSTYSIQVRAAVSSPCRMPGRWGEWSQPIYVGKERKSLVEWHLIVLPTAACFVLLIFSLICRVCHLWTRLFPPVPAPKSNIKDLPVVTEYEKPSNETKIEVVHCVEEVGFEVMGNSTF
As to the kind of experiment: flow cytometry on Y16 cells. In general terms: In flow cytometry, cells or beads pass a laser one at a time.

Test [2] addresses T1, mouse IL-5Rα on Y16 cells. As to the kind of experiment: flow cytometry on Y16 cells expressing mouse IL-5R, detection with goat F(ab')2 anti-human IgG PE, Geomean. How it is done: The chimeric antibodies prepared in Example 8 were evaluated for their antigen binding activity using a mouse-derived cell line Y16 expressing IL-5R. The Y16 cells were washed with SM (staining medium containing 2% FCS, 0.05% NaN₃, and 1 mM EDTA in PBS). Then, Mouse BD Fc Block (manufactured by Becton, Dickinson and Company) was added thereto at a concentration of 5 μg/mL, and the mixture was left standing at 4° C. for 30 min. The cells were inoculated at a cell number of 1×10⁵ cells/well to a 96-well U-bottom plate, and each chimeric antibody adjusted to a final concentration of 10000, 2500, 625, 156, 39, 10, 2.4, or 0.6 ng/mL was added thereto, followed by reaction at 4° C. for 60 min. The rat/human chimeric control antibodies used were rtDNP-1 hIgG1 (DF) antibody (KM8808) and rtDNP-1 hIgG1 (N297A) antibody (KM6161). The nucleotide sequences and amino acid sequences of the variable regions of each isotype control antibody are shown in SEQ ID NOs: 29 to 34. […] Fluorescence intensity was measured by FCM (flow cytometer FACS Canto II (manufactured by Becton, Dickinson and Company)). The data was analyzed using FlowJo 7.65 (manufactured by Tomy Digital Biology Co., Ltd.) to calculate a Geomean value at each concentration.

B1: H7 hIgG1 (DF) (H7-1) (antibody, V domains shown)
VH: EVQLQQSGAELGKPGTSVKLSCKVSGYNIKNTYIHWVNQRPGKGLEWIGRIDPANGNPIYAEKFKNKATLTADTSSNTAYMQLSQLKSDDTAIYFCAMHRGHSMGPGPYVMDAWGQGASVTVSS
VL: DIQMTQSPASLSASLGETVTIECRTSEDIYNGLAWYQQKPGKSPQLLIYNANSLHTGVPSRFSGSGSGTQYSLKINSLQSEDVASYCCQQYSNYPFTFGSGTKLEIK
notes: also called core fucose-deficient H7 chimeric antibody; Potelligent-type H7 chimeric antibody
For B1, the binding result in test [1] and in test [2] was “binds” throughout.

B2: H7 hIgG1 (N297A) (H7-3) (antibody, V domains shown)
VH: EVQLQQSGAELGKPGTSVKLSCKVSGYNIKNTYIHWVNQRPGKGLEWIGRIDPANGNPIYAEKFKNKATLTADTSSNTAYMQLSQLKSDDTAIYFCAMHRGHSMGPGPYVMDAWGQGASVTVSS
VL: DIQMTQSPASLSASLGETVTIECRTSEDIYNGLAWYQQKPGKSPQLLIYNANSLHTGVPSRFSGSGSGTQYSLKINSLQSEDVASYCCQQYSNYPFTFGSGTKLEIK
notes: Rat H7 variable regions on a human IgG1 constant region with N297A (EU index), so it lacks the N-linked sugar chain; Human kappa light chain constant region; also called N-linked sugar chain-deficient H7 chimeric antibody
With B2, the binding entry in test [1] and in test [2] was “binds” each time.

The record behind these values is US20180155434A1 (UNIVERSITY OF TOYAMA, published 2018).
